From patent US6197536A (priority 1995, dated 2001) come the findings set out here.

Some peptides are written in HELM: one residue between dots, names in brackets for other building blocks, links after the first $.

A short description of the data set: general procedure: Fmoc solid-phase peptide synthesis in flow; NovaSyn KR 125 (Kieselguhr-polyamide with modified Rink amide linker, 0.1 mmol/g); PyBOP/HOBt/DIEA; DIPC/HOBt for L-(+)-lactic acid; symmetrical anhydride/DMAP for. The conditions noted are these: whole synthesis.

Regarding “Ac-Asp-Glu-Met-Glu-Glu-Thr-.psi.-[CCOO]1-Ala-Ser-His-Leu-Pro-Tyr-Lys(N. sup.ε -Ac)-NH2”, the difficulty met entry was “Esterification of Thr to lactic acid required three repetitions to obtain a 70% yield, which was also accompanied by 3% racemization of the Thr residue” and the isolated yield result is listed as “yield 24%”.
As for “PEPTIDE1{[ac].D.E.[Asp(EDANS)].E.E.[Abu].[Lac].S.[Lys(DABCYL)].[am]}$$$$V2.0”, the isolated yield was 45%. Moreover, the “final purity (method not given)” value (HPLC) is greater than 98%.
